This note sets out measurements from the supplement of paper PMC10849652.

Protein sequences, listed by entry. Tags and fused reporters are not part of them. Lines headed by an entry give the natural chain unless they say otherwise; changes in a name come on top.
UniProt Q9NZJ7, whole entry, looked up: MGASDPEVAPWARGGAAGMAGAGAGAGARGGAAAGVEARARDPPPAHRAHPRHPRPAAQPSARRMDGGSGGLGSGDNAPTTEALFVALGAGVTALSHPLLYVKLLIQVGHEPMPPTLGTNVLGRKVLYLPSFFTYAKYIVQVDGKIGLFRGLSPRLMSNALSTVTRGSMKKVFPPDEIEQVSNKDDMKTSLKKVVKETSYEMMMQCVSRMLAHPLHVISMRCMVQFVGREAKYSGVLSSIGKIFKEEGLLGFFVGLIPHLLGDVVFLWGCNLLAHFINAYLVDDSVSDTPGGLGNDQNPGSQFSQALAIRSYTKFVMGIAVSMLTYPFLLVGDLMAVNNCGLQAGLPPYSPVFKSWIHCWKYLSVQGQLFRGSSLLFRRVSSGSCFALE
UniProt P13995: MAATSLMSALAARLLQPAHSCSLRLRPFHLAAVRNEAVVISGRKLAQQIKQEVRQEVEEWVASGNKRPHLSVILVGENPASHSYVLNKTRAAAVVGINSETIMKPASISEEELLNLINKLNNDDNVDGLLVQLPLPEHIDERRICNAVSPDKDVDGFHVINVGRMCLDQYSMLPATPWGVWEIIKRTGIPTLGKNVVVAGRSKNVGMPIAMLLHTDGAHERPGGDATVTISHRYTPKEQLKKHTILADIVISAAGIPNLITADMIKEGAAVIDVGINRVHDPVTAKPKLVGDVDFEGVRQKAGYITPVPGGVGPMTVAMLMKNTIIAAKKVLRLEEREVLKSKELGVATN
UniProt P00846: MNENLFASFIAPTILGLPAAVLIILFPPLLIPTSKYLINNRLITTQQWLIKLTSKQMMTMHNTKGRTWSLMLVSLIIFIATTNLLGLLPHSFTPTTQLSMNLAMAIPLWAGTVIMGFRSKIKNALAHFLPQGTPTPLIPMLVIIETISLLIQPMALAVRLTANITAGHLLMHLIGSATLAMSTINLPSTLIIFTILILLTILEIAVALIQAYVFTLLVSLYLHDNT
UniProt Q96E11: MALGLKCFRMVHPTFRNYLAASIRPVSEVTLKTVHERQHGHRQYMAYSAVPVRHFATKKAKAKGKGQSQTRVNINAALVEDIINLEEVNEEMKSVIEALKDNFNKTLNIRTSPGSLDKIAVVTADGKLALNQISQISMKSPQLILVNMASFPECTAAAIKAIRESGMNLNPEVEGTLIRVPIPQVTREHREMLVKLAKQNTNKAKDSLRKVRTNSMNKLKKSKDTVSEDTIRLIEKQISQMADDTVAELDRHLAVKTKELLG
UniProt P26038, whole entry, looked up: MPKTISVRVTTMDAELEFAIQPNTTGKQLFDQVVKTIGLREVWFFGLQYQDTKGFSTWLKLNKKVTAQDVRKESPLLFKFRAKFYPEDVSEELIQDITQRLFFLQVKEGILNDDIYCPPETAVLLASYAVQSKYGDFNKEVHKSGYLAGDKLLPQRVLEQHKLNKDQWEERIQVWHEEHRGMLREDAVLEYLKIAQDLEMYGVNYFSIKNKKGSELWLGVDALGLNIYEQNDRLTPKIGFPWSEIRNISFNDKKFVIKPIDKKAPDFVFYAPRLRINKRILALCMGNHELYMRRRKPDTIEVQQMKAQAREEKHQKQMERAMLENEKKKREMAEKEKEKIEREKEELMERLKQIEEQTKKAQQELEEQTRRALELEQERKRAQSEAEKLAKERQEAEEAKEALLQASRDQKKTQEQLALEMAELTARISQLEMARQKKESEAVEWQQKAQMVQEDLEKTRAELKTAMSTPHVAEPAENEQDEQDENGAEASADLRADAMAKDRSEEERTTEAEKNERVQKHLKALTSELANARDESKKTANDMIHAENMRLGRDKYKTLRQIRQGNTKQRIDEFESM
UniProt Q15800: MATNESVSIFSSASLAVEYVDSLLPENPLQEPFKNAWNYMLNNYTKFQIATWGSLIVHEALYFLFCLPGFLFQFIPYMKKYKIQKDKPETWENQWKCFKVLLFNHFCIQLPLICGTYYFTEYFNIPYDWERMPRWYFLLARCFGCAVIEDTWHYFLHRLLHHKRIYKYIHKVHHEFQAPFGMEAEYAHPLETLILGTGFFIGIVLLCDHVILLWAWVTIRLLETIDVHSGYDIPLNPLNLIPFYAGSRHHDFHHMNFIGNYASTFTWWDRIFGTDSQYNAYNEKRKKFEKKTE
UniProt Q9Y217: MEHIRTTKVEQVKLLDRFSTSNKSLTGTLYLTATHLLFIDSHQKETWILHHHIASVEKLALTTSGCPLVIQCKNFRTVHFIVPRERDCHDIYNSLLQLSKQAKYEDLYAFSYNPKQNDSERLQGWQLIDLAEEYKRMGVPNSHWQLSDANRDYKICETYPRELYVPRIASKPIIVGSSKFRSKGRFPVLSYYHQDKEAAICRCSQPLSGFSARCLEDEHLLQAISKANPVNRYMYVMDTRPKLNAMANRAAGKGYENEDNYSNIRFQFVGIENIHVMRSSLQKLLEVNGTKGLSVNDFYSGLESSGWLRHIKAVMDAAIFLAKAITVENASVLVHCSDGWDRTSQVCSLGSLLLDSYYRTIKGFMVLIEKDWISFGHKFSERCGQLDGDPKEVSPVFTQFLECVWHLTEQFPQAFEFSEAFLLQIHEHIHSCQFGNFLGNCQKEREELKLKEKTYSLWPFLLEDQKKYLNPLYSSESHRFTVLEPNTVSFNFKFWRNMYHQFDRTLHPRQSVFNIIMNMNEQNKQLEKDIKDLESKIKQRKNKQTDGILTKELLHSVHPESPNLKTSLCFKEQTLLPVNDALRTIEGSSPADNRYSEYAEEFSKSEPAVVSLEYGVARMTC
UniProt Q96DR8: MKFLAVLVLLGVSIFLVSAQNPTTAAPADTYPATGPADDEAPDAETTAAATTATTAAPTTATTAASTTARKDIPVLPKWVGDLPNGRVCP
UniProt Q99417: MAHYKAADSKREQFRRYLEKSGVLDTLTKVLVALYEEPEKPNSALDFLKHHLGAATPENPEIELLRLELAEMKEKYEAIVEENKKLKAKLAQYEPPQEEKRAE
UniProt P14649: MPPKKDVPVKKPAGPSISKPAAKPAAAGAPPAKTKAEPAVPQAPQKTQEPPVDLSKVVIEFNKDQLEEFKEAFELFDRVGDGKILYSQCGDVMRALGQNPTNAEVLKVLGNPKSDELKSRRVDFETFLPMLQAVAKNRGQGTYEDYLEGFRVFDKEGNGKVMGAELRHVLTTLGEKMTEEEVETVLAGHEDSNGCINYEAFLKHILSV
UniProt P82909: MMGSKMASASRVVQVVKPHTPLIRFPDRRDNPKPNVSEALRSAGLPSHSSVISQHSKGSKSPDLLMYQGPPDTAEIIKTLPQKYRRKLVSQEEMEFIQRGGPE
UniProt Q8NCE2: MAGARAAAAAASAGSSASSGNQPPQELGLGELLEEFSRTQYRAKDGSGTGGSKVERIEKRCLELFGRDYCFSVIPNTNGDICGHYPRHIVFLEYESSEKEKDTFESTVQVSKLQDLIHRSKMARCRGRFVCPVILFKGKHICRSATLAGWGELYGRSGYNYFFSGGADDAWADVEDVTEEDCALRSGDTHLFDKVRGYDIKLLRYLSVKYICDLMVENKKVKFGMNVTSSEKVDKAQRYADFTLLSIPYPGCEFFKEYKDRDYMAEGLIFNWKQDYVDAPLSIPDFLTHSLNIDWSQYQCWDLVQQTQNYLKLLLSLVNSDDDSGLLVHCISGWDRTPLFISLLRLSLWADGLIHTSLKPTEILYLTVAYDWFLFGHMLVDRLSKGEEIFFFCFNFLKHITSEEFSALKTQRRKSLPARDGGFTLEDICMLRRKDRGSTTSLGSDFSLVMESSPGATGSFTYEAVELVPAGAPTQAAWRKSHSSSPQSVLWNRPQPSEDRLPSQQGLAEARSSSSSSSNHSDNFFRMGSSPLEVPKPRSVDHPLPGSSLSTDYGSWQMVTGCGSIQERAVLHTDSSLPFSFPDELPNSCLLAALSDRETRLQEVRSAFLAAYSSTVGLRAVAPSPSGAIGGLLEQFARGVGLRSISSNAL
UniProt Q96S97: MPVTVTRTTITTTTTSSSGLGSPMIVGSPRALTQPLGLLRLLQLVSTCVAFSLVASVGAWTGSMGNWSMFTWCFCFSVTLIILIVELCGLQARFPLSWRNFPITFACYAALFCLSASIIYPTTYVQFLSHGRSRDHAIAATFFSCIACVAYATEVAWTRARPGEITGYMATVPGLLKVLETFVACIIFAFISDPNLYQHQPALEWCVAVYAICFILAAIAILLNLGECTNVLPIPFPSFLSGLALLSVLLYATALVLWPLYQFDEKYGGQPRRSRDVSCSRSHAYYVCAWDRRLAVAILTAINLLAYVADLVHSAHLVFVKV
UniProt P35579, whole entry, looked up: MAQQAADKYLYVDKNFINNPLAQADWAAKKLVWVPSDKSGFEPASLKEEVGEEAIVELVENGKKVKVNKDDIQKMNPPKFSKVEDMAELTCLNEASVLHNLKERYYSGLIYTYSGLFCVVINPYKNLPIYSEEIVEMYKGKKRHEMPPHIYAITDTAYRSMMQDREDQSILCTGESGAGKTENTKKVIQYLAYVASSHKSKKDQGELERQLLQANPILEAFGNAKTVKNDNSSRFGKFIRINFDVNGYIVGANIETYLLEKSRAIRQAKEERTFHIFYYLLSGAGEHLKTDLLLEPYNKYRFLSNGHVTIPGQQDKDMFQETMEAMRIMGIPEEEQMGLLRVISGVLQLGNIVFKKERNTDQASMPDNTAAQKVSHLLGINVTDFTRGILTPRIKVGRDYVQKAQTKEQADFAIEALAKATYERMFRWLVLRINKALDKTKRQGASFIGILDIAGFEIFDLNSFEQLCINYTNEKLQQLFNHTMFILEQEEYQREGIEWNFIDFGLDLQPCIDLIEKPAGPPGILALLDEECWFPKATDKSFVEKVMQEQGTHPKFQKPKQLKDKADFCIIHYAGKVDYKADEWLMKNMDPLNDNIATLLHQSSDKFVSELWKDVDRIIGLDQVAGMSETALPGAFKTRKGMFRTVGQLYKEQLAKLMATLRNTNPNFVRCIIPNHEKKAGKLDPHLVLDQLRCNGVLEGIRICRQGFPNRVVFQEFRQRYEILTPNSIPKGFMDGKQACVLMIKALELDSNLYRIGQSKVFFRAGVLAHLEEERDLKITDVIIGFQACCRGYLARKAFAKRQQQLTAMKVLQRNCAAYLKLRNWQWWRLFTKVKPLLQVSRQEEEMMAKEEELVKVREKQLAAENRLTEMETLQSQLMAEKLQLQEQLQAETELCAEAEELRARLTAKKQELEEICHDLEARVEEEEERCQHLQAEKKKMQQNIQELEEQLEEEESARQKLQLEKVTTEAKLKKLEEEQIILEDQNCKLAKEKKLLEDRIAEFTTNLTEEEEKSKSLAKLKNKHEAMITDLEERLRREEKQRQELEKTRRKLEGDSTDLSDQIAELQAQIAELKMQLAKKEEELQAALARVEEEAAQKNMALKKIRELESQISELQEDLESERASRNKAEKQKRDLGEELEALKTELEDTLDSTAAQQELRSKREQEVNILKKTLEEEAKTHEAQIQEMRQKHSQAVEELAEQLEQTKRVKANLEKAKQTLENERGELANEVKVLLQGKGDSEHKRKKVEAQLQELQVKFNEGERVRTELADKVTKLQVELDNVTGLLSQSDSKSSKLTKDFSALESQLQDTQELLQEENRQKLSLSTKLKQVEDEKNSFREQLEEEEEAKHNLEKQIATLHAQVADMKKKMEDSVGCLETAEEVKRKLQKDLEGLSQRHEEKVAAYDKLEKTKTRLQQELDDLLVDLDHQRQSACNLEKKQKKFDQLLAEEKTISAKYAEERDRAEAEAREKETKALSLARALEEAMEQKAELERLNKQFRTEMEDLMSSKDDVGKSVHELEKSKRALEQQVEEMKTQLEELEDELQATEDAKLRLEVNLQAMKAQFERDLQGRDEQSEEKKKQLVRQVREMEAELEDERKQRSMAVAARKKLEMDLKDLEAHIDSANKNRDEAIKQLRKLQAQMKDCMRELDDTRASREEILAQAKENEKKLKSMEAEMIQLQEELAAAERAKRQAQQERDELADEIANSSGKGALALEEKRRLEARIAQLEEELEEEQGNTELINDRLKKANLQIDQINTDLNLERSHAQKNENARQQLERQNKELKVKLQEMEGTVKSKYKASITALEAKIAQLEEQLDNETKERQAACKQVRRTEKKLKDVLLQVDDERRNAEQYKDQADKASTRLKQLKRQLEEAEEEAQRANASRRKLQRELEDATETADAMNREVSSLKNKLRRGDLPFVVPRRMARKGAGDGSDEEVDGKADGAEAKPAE
UniProt Q9HD23: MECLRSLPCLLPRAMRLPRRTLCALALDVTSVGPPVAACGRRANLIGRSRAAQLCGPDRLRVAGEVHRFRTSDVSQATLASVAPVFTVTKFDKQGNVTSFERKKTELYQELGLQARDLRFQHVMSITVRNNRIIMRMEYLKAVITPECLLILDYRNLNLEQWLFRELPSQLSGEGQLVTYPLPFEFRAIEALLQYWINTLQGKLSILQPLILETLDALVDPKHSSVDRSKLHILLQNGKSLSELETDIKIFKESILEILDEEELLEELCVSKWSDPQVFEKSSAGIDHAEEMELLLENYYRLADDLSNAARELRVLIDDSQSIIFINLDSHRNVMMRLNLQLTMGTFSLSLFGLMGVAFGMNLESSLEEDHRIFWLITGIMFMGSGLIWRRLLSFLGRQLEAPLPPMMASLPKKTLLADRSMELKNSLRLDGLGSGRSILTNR

The list shows a part of the results.

Compound in this experiment: Cn1cc(-c2ccc3nnc(C(F)(F)c4ccc5ncccc5c4)n3n2)cn1
The experiment can be described thus: log2 fold change, soluble protein after heating vs DMSO (PISA); higher = thermal stabilisation; K562 cells, 10 uM, 30 min; active = over 0.2 and 3.5 SD of the protein, either way, in both replicates (recomputed). In a few lines:
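K562 cells at 2×10^6 cells/mL were treated for 30 min with 10 μM compound, and aliquots were heated for 3 min over 48°C-58°C before pooling. Extraction used PBS with 0.5% NP-40 at 4°C, and soluble protein was the supernatant after 21,000xg for 90 min, measured by TMTpro 16plex LC-MS/MS with channel sums equalised. Thermal stability values, relative to control samples and from duplicates, are log2 fold changes.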
For MTCH1 (UniProt Q9NZJ7), the log2 fold change is inactive: -0.029.
For the target MTHFD2 (UniProt P13995), the log2 fold change is inactive: 0.035.
In the case of MT-CYB (UniProt P00156) it was inactive: 0.029; in that of MYH11 isoform 2 (UniProt P35749), inactive: -0.001.
In the case of MT-ATP6 (UniProt P00846) it was inactive: 0.11; in that of MYO1D (UniProt O94832), inactive: -0.071; in that of MTHFD1, A0A384N5Y3, inactive: -0.008.
In the case of MRRF (UniProt Q96E11) it was inactive: 0.02; in that of MTMR12 (UniProt Q9C0I1), inactive: 0.06.
MSN (UniProt P26038): the log2 fold change was inactive: -0.017.
With MSMO1 (UniProt Q15800) the figure was inactive: 0.
In the case of MRPS10 (UniProt P82664) it was inactive: -0.096; in that of MTMR6 (UniProt Q9Y217), inactive: -0.099.
In the case of MUCL1 (UniProt Q96DR8) it was inactive: 0.361; in that of MRPS2 (UniProt Q9Y399), inactive: 0.035.
MRPS15 (UniProt P82914): the log2 fold change was inactive: 0.032.
With MRPS27 isoform 2 (UniProt Q92552) the figure was inactive: 0.033; with MSRB2 (UniProt Q9Y3D2), inactive: -0.236; with MYCBP (UniProt Q99417), inactive: 0.021.
With MRPS11 (UniProt P82912) the figure was inactive: 0.14.
With MRPS33 (UniProt Q9Y291) the figure was inactive: 0.028; with MRTFA (UniProt Q969V6), inactive: -0.006; with MYL6B (UniProt P14649), inactive: 0.026.
In the case of MTM1 (UniProt Q13496), the log2 fold change was inactive: -0.041.
Turning to MRPS36 (UniProt P82909), the log2 fold change was inactive: -0.1.
With MTRR isoform 1 (UniProt Q9UBK8), the log2 fold change is inactive: -0.044.
For MRPS24 (UniProt Q96EL2), the log2 fold change is inactive: 0.008.
With MTPAP (UniProt Q9NVV4) the figure was inactive: -0.003; with MRPL9 (UniProt Q9BYD2), inactive: -0.068; with MRPS30 (UniProt Q9NP92), inactive: -0.08.
With MTMR14 (UniProt Q8NCE2) the figure was inactive: -0.084; with MTX2 (UniProt O75431), inactive: -0.001; with MTA1 (UniProt Q13330), inactive: 0.057.
Regarding MYADM (UniProt Q96S97), the log2 fold change is inactive: 0.104.
In the case of MTOR (UniProt P42345) it was inactive: 0.037.
Turning to MYO6 isoform 6 (UniProt Q9UM54), the log2 fold change was inactive: -0.046.
With MYH9 (UniProt P35579) the figure was inactive: -0.004; with MRPS18A isoform 2 (UniProt Q9NVS2), inactive: -0.097.
Regarding MRS2 (UniProt Q9HD23), the log2 fold change was inactive: -0.044.
